No constants are given. Whether binding was seen depends on the method and setting. Binding seen in cells or lysates may run through a third protein. Some entries that bind do so weakly or less than the wild type. Sequences can lack the tags named with a protein.
Columns and labels:
[1] = target: eGFP-DLG1 (Rattus norvegicus DLG1/pEGFP-C1) (rat (Rattus norvegicus)); experiment: co-IP; immunoprecipitation with anti-GFP beads from lysates of HEK293T cells transiently co-expressing a GFP fusion and a FLAG fusion; washing buffer with 0.1% NP-40; pellets blotted with anti-FLAG and anti-GFP; GFP alone as negative control
[2] = target: IFT20-eGFP (Mus musculus IFT20/pEGFP-N1) (mouse (Mus musculus)) (UniProt Q61025); experiment: as above

Protein sequences, listed by entry. Tags and fused reporters are not part of them.
UniProt Q61025: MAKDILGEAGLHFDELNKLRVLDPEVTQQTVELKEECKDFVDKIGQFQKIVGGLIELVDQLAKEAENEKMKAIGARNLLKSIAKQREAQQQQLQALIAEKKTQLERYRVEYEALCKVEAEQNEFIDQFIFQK
UniProt Q8IY31: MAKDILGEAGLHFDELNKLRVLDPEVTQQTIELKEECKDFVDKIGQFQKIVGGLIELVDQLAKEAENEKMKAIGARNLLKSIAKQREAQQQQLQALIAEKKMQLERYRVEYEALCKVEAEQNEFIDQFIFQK

binding [1] | binding [2] | Molecule
binds | – | FLAG-IFT20 (Homo sapiens IFT20/pcDNA5.1-6xHis-3xFLAG-TEV) (from UniProt Q8IY31 1-132)
binds | binds | FLAG-Myc-SDCCAG3 (Mus musculus SDCCAG3/pCMV6-Myc-DDK) (protein, UniProt A2AIW0 1-432) MSGYARRQGAPPLSRTRSLVVPDAPAFYERRSCLPQLDCERPHGGDLHPHLFGFRPTFMCYVPSPVLASVGDTGFGYGKGKCTNQGPSGAPETRFGGDKLEDLEEANPFSFKEFLKTKNLSLSKEDTTTSRIYPKEASRHPLGLEHSSPASQLMGYGLESQQPFFEDPTRASNLEEDEDDGWNITYLPSAVDQTHSSRDTQDSPPCDTYLSFFSNSSELACPESLPPWTLSDTDSRISPASPAGSPNADFAAHEESLGDRHLRTLQISYEALKDENSKLRRKLNEVQSFSETQTEMVRTLERKLEAKMIKEESDFHDLESVVQQVEQNLELMTKRAVKAENHVLKLKQEINLLQAQLSNLRRENEALRSGQGASLSVVKQNTDVALQNLHLVMNSAHASIKQLVSGADTLNLVAEILKSIDRISEVKDEVDS

Source: PMC11239879
